No constants are given. Whether binding was seen depends on the method and setting. A result given as binding can be weak or reduced; the word gives no strength. For some assays here: In cells and extracts the contact can be indirect. One block for each binder: values may come before it.
Experiments:
PRCD_GST p.C2Y (mouse) = assay: pull-down; in vitro translated TULP1_HA or TUB_HA mixed with 20 µg purified PRCD-GST beads in pull-down buffer (20 mM Hepes, 100 mM NaCl, 1% NP-40, 20% glycerol), 1 h at room temperature; blot with anti-HA; only the target purified
PRCD_GST p.P25T (mouse) = assay: as above
PRCD_Myc (mouse) = assay: co-IP; lysates of co-transfected COS-7 cells in WCE buffer (25 mM HEPES pH 7.7, 0.3 M NaCl, 0.1% Triton X-100); anti-Myc tag antibody overnight at 4 °C, Protein A Sepharose; blot with anti-HA
PRCD_GST (mouse) = assay: pull-down; in vitro translated TULP1_HA or TUB_HA mixed with 20 µg purified PRCD-GST beads in pull-down buffer (20 mM Hepes, 100 mM NaCl, 1% NP-40, 20% glycerol), 1 h at room temperature; blot with anti-HA; only the target purified
[1] = biological target: PRCD-Myc-Ras bait (pMet425-PRCD-Myc-Ras) (mouse); assay: two-hybrid; Ras recruitment system (cytoplasmic yeast two-hybrid) in cdc25-2 yeast; PRCD-Myc-Ras bait, myristoylated prey from a bovine retinal cDNA library; growth on GAL-LUM at 24 °C and 36 °C

B1: TULP1_HA, in vitro translated (wild type, limits not stated) (protein, UniProt Q9Z273 1-543)
chain: MPLQEETLREVWASDSGHEEDCLSPEPPLRPKQRPAQGQKLRKKKPETPDSLESKPRKAGAGRRKHEEPPADSAEPRAAQTVYAKFLRDPEAKKRDPRENFLVARAPDLGGEENSEEDSDDDDNDDDEEEEEKKEGKKEKSSLPPKKAPKEREKKAKALGPRGDVGSPDAPRKPLRTKKKEVGEGTKLRKAKKKGPGETDKDPAGSPAALRKEFPAAMFLVGEGGAAEKGVKKKGPPKGSEEEKKEEEEEVEEEVASAVMKNSNQKGRAKGKGKKKVKEERASSPPVEVGEPREFVLQPAPQGRAVRCRLTRDKKGMDRGMYPSYFLHLDTEKKVFLLAGRKRKRSKTANYLISSDPTNLSRGGENFIGKLRSNLLGNRFTVFDNGQNPQRGGGGDVGSLRQELAAVVYETNVLGFRGPRRMTVIIPGMNSDNERVPIRPRNASDGLLVRWQNKTLESLIELHNKPPIWNEDSGSYTLNFQGRVTQASVKNFQIVHADDPDYIVLQFGRVAEDAFTLDYRYPLCALQAFAIALSSFDGKLACE
binding (PRCD_GST p.C2Y (mouse)): binds
binding (PRCD_GST p.P25T (mouse)): binds

B2: TULP1_HA (full-length mouse TULP1) (protein, UniProt Q9Z273 1-543)
chain: B1 chain
binding (PRCD_Myc (mouse)): binds

B3: TUB_HA (full-length TUB) (protein, UniProt P50586-1 1-505)
chain: MTSKPHSDWIPYSVLDDEGSNLRQQKLDRQRALLEQKQKKKRQEPLMVQANADGRPRSRRARQSEEQAPLVESYLSSSGSTSYQVQEADSIASVQLGATRPPAPASAKKSKGAAASGGQGGAPRKEKKGKHKGTSGPATLAEDKSEAQGPVQILTVGQSDHDKDAGETAAGGGAQPSGQDLRATMQRKGISSSMSFDEDEDEDENSSSSSQLNSNTRPSSATSRKSIREAASAPSPAAPEPPVDIEVQDLEEFALRPAPQGITIKCRITRDKKGMDRGMYPTYFLHLDREDGKKVFLLAGRKRKKSKTSNYLISVDPTDLSRGGDSYIGKLRSNLMGTKFTVYDNGVNPQKASSSTLESGTLRQELAAVCYETNVLGFKGPRKMSVIVPGMNMVHERVCIRPRNEHETLLARWQNKNTESIIELQNKTPVWNDDTQSYVLNFHGRVTQASVKNFQIIHGNDPDYIVMQFGRVAEDVFTMDYNYPLCALQAFAIALSSFDSKLACE
binding (PRCD_Myc (mouse)): binds

B6: bovine TULP1 prey clone (amino acids 220-546) (domain or fragment, UniProt E1BHT9 220-546)
chain: PAAMFLVPGECPAEKTLKKKGTPKGSEEEKKEEGEEDDEAAAAMTKNSNQKGKAKGKGKKKAKEDRAPSPPVEVDEPQEFVLRPAPQGRTVRCRLTRDKKGMDRGLYPSYFLHLDTEKKVFLLAGRKRKRSKTANYLISSDPTNLSRGGENFIGKLRSNLLGNRFTVFDNGQNPHRGGSTDVGSLRQELAAVIYETNVLGFRGPRRMTVIIPGMNSDNERVPIRPRNASDGLLVRWQNKTLESLIELHNKPPIWNEDSGSYTLNFQGRVTQASVKNFQIVHADDPDYIVLQFGRVAEDAFTLDYRYPLCALQAFAIALSSFDGKLAC
binding [1]: binds

More lines, now with the values ahead:

binding (PRCD_GST (mouse)): binds
B4: truncated TUB_HA, tubby domain (aa 248-506) (domain or fragment, UniProt P50586-1 248-505)
chain: QDLEEFALRPAPQGITIKCRITRDKKGMDRGMYPTYFLHLDREDGKKVFLLAGRKRKKSKTSNYLISVDPTDLSRGGDSYIGKLRSNLMGTKFTVYDNGVNPQKASSSTLESGTLRQELAAVCYETNVLGFKGPRKMSVIVPGMNMVHERVCIRPRNEHETLLARWQNKNTESIIELQNKTPVWNDDTQSYVLNFHGRVTQASVKNFQIIHGNDPDYIVMQFGRVAEDVFTMDYNYPLCALQAFAIALSSFDSKLACE

binding (PRCD_GST (mouse)): binds
B5: truncated TULP1_HA, C-terminal part (aa 289-543) (domain or fragment, UniProt Q9Z273 290-543)
chain: GEPREFVLQPAPQGRAVRCRLTRDKKGMDRGMYPSYFLHLDTEKKVFLLAGRKRKRSKTANYLISSDPTNLSRGGENFIGKLRSNLLGNRFTVFDNGQNPQRGGGGDVGSLRQELAAVVYETNVLGFRGPRRMTVIIPGMNSDNERVPIRPRNASDGLLVRWQNKTLESLIELHNKPPIWNEDSGSYTLNFQGRVTQASVKNFQIVHADDPDYIVLQFGRVAEDAFTLDYRYPLCALQAFAIALSSFDGKLACE

binding (PRCD_GST (mouse)): no binding
B7: truncated TULP1_HA, N-terminal part (aa 1-288) (domain or fragment, UniProt Q9Z273 1-288)
chain: MPLQEETLREVWASDSGHEEDCLSPEPPLRPKQRPAQGQKLRKKKPETPDSLESKPRKAGAGRRKHEEPPADSAEPRAAQTVYAKFLRDPEAKKRDPRENFLVARAPDLGGEENSEEDSDDDDNDDDEEEEEKKEGKKEKSSLPPKKAPKEREKKAKALGPRGDVGSPDAPRKPLRTKKKEVGEGTKLRKAKKKGPGETDKDPAGSPAALRKEFPAAMFLVGEGGAAEKGVKKKGPPKGSEEEKKEEEEEVEEEVASAVMKNSNQKGRAKGKGKKKVKEERASSPPVE
